Results are given in words; binding and its absence hold for the method and conditions named. In cells and extracts the contact can be indirect. Some entries that bind do so weakly or less than the wild type. Sequences can lack the tags named with a protein.
Biological target: T1, Gtr1-FLAG (S. pombe) (UniProt O74824)
T1 sequence: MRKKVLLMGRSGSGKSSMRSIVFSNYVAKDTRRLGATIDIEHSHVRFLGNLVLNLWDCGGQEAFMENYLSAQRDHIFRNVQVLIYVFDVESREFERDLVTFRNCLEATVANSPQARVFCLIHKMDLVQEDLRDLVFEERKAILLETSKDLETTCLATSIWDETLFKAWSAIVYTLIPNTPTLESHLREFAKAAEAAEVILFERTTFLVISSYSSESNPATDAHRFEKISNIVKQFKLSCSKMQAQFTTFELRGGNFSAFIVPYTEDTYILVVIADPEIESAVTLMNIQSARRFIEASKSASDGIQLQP
Test: co-IP

B1: Iml1-myc (protein, UniProt O74788 1-1496)
chain: MAITLNLWTHESSLFPNDAVLNYDLVPSAKPGDIFEIRAQNGDEIALQHNHSSTGKLHAKREKEPVYLMPSPLTDDLKRRHPNLQLSVVSHISSLLNIKNREPVVVKICEDKTNLEAEHVVIFFRDQFISRSDMWKLFRELCGKCVYLKQRVSFIGDVPGEIRCIWRKGKKCHSAYISERTKPIFRSESARFLIFIQMSEEMWHFEEDGELNYNKAIDGFLPDLFSFWRDLGTHHLVSIILFTRVEYSHHGPMCVWQPRSQKNSEKGSSIYPQNSFNASIDNEGGPYEDFFKVVVDNVSSRDWQPVLANLKLELAKFRQDVIVRKIKDENGREIEYICGRMTGSQEGNFLEVINMAVFQFQSDYIDRDLSRTGTSIIIVTPGTGLYEVNEKMLHLTSKSLLNTVVGMDIVSLGKVPLFLTPIVRYKNPVKNKKRSQLTSRISSSVSPSNVIPNSLTSSVSNFSVSSFLNNLKEDTEWLYTFPIGCNISFYSTTEMRSLRSPWENLMREHQFEPTAKMHELQMMGVLEAESAKISIPLLQSDPLLKGSVFSEEVQEDYDERQFTGEAAVSANDVLSSSSPRHFSSHTPVNVDKSSYLEMNGHSLSTVISGKESISSFGAKVDDLKSTSKESARQFGKSALTERLQKLAGNSSNVSSSLQTSSSNKSSLLTKKSSFPALLKGFLALPATVTTSANPLGFKSTIQRPIPIKNNEDSDSCKAFSQAPPIATKKPPTFLKPNSPEYAKTVIPKSSTNLENEYQTPWKIIQNPFKLKETTADNDPVSLRWEHLYMKVQDVRKFNWLSMCTPGALPLTFSYFPSEEELNDKFEEYTYTIGIDPEFTQMNQQELLAEMICQRLSRGYQIVVNPAAAVSYSGNPKANKAGTITDFSRSVNNQRNGHLTVGSDAVCLSLGDSQFHRLSCDSVGYNIEVKRYVKKVSGQGKMRYDYNFWSKNECKYVKSNITFSANDSANYNWNYVDQLICGFETYLPDSVKYWRARFVLLPMSTTSTHVFQKYQLLDHADALSDEEFRVEGIYKLSELLYKGKIDPMNDSNNKTPNTSPAELLGIKFTTLPMAQYIHSELEALRLDSSRNEQSLFMPNKRLDCSADLHTIAKEIQGPGGPKIDDITWHYRIYENCFLGSEFVSWLANTFIGINTREEALKYGNKLLSLGLFDHALKKHPLLDGYYVYRISPDYSIKPVSNRPYRSWFSRKKDSGQKHLDNKIITESEAGPSRLELSRRILFNADVEKKNGKSETVTVHYDLLHNPASCYHIRIEWLLATASVIEKLLQSWSRILERYGLKLVEAPIHEIAAVGELNPFDQVSIISLALDPPPIPERAPLVNDPVNYSKNWWNVKILEHFDFILDTEAASTFPKSITAVYSWGKPNFRYVQYIHRTGTVLVQIDDDQRFLWLPNRLHNSKVSKLSFTKSNKSTLNPNLKETAEELERKFREFCSNKDELDQFYGIVNHASDDRRSIYSSASTHASNASADDASNVNV
**Q.** For B1, which binding is on record?
**A.** The binding was “binds”.

— article PMC7857730
